Experimental data: ChEMBL document CHEMBL4316593 (Eur J Med Chem, 2019)
The source gives many values for each of these; only a part stands here.

What was measured:
Format in all cases: cell-based
Conditions in all cases: U-87MG ATCC
[1] = Inhibition of RTK/PI3K/AKT/mTOR signaling in human U87 cells assessed as down regulation of VRK3 gene expression at cytotoxic IC50 measured after 48 hrs relative to control
[2] = Inhibition of RTK/PI3K/AKT/mTOR signaling in human U87 cells assessed as up regulation of proline and serine rich 2 gene expression at cytotoxic IC50 measured after 48 hrs relative to control
[3] = Inhibition of RTK/PI3K/AKT/mTOR signaling in human U87 cells assessed as down regulation of DHX29 gene expression at cytotoxic IC50 measured after 48 hrs relative to control
[4] = Inhibition of RTK/PI3K/AKT/mTOR signaling in human U87 cells assessed as up regulation of allograft inflammatory factor 1 like gene expression at cytotoxic IC50 measured after 48 hrs relative to control
[5] = Inhibition of RTK/PI3K/AKT/mTOR signaling in human U87 cells assessed as up regulation of family with sequence similarity 136 member A gene expression at cytotoxic IC50 measured after 48 hrs relative to control
[6] = Inhibition of RTK/PI3K/AKT/mTOR signaling in human U87 cells assessed as up regulation of NR2F1 gene expression at cytotoxic IC50 measured after 48 hrs relative to control
[7] = Inhibition of RTK/PI3K/AKT/mTOR signaling in human U87 cells assessed as down regulation of ZNF101 gene expression at cytotoxic IC50 measured after 48 hrs relative to control
[8] = Inhibition of RTK/PI3K/AKT/mTOR signaling in human U87 cells assessed as up regulation of OPA3, outer mitochondrial membrane lipid metabolism regulator gene expression at cytotoxic IC50 measured after 48 hrs relative to control
[9] = Inhibition of RTK/PI3K/AKT/mTOR signaling in human U87 cells assessed as up regulation of NOTCH3 gene expression at cytotoxic IC50 measured after 48 hrs relative to control
[10] = Inhibition of RTK/PI3K/AKT/mTOR signaling in human U87 cells assessed as down regulation of MYBL2 gene expression at cytotoxic IC50 measured after 48 hrs relative to control
[11] = Inhibition of RTK/PI3K/AKT/mTOR signaling in human U87 cells assessed as up regulation of KITLG gene expression at cytotoxic IC50 measured after 48 hrs relative to control
[12] = Inhibition of RTK/PI3K/AKT/mTOR signaling in human U87 cells assessed as down regulation of FARP1 gene expression at cytotoxic IC50 measured after 48 hrs relative to control
[13] = Inhibition of RTK/PI3K/AKT/mTOR signaling in human U87 cells assessed as down regulation of ALYREF gene expression at cytotoxic IC50 measured after 48 hrs relative to control
[14] = Inhibition of RTK/PI3K/AKT/mTOR signaling in human U87 cells assessed as up regulation of NCMAP gene expression at cytotoxic IC50 measured after 48 hrs relative to control
[15] = Inhibition of RTK/PI3K/AKT/mTOR signaling in human U87 cells assessed as down regulation of TK1 gene expression at cytotoxic IC50 measured after 48 hrs relative to control
[16] = Inhibition of RTK/PI3K/AKT/mTOR signaling in human U87 cells assessed as up regulation of TNFRSF10D gene expression at cytotoxic IC50 measured after 48 hrs relative to control
[17] = Inhibition of RTK/PI3K/AKT/mTOR signaling in human U87 cells assessed as up regulation of zinc finger AN1-type containing 1 gene expression at cytotoxic IC50 measured after 48 hrs relative to control
[18] = Inhibition of RTK/PI3K/AKT/mTOR signaling in human U87 cells assessed as down regulation of GPAM gene expression at cytotoxic IC50 measured after 48 hrs relative to control
[19] = Inhibition of RTK/PI3K/AKT/mTOR signaling in human U87 cells assessed as up regulation of BAH domain and coiled-coil containing 1 gene expression at cytotoxic IC50 measured after 48 hrs relative to control
[20] = Inhibition of RTK/PI3K/AKT/mTOR signaling in human U87 cells assessed as down regulation of HMGB3 gene expression at cytotoxic IC50 measured after 48 hrs relative to control
[21] = Inhibition of RTK/PI3K/AKT/mTOR signaling in human U87 cells assessed as up regulation of homeobox B9 gene expression at cytotoxic IC50 measured after 48 hrs relative to control
[22] = Inhibition of RTK/PI3K/AKT/mTOR signaling in human U87 cells assessed as down regulation of BORCS5 gene expression at cytotoxic IC50 measured after 48 hrs relative to control
[23] = Inhibition of RTK/PI3K/AKT/mTOR signaling in human U87 cells assessed as up regulation of eukaryotic translation initiation factor 4B gene expression at cytotoxic IC50 measured after 48 hrs relative to control
[24] = Inhibition of RTK/PI3K/AKT/mTOR signaling in human U87 cells assessed as up regulation of zinc finger protein 22 gene expression at cytotoxic IC50 measured after 48 hrs relative to control
[25] = Inhibition of RTK/PI3K/AKT/mTOR signaling in human U87 cells assessed as down regulation of GTF3C3 gene expression at cytotoxic IC50 measured after 48 hrs relative to control
[26] = Inhibition of RTK/PI3K/AKT/mTOR signaling in human U87 cells assessed as up regulation of nectin cell adhesion molecule 3 gene expression at cytotoxic IC50 measured after 48 hrs relative to control
[27] = Inhibition of RTK/PI3K/AKT/mTOR signaling in human U87 cells assessed as down regulation of GCA gene expression at cytotoxic IC50 measured after 48 hrs relative to control
[28] = Inhibition of RTK/PI3K/AKT/mTOR signaling in human U87 cells assessed as down regulation of DBR1 gene expression at cytotoxic IC50 measured after 48 hrs relative to control
[29] = Inhibition of RTK/PI3K/AKT/mTOR signaling in human U87 cells assessed as down regulation of TRIM68 gene expression at cytotoxic IC50 measured after 48 hrs relative to control
[30] = Inhibition of RTK/PI3K/AKT/mTOR signaling in human U87 cells assessed as up regulation of SEC11A gene expression at cytotoxic IC50 measured after 48 hrs relative to control
[31] = Inhibition of RTK/PI3K/AKT/mTOR signaling in human U87 cells assessed as up regulation of transmembrane protein 168 gene expression at cytotoxic IC50 measured after 48 hrs relative to control
[32] = Inhibition of RTK/PI3K/AKT/mTOR signaling in human U87 cells assessed as up regulation of PHD finger protein 23 gene expression at cytotoxic IC50 measured after 48 hrs relative to control

**Q.** What does the source list for `CC(=O)C(=NNc1ccccc1C#N)C(C)=O`?
**A.** log2FC [1]: -0.891; log2FC [2]: 1.18; log2FC [3]: -0.878; log2FC [4]: 1.18; log2FC [5]: 0.792; log2FC [6]: 3.56; log2FC [7]: -1.23; log2FC [8]: 1.22; log2FC [9]: 2.42; log2FC [10]: -1.61; log2FC [11]: 2.14; log2FC [12]: -0.732; log2FC [13]: -0.6; log2FC [14]: 2.53; log2FC [15]: -0.652; log2FC [16]: 1.65; log2FC [17]: 0.651; log2FC [18]: -1.64; log2FC [19]: 1.1; log2FC [20]: -0.637; log2FC [21]: 1.19; log2FC [22]: -1.28; log2FC [23]: 0.846; log2FC [24]: 1.01; log2FC [25]: -0.693; log2FC [26]: 0.899; log2FC [27]: -1.2; log2FC [28]: -0.761; log2FC [29]: -1.03; log2FC [30]: 0.591; log2FC [31]: 0.879; log2FC [32]: 0.73
